In PMC1635730:
These are yes or no findings as the source states them, for the method shown. A result given as binding can be weak or reduced; the word gives no strength.

By UniProt entry, the sequences of proteins in these tests, tags left out. Residues count along the entry.
UniProt P05088, residues 22-275: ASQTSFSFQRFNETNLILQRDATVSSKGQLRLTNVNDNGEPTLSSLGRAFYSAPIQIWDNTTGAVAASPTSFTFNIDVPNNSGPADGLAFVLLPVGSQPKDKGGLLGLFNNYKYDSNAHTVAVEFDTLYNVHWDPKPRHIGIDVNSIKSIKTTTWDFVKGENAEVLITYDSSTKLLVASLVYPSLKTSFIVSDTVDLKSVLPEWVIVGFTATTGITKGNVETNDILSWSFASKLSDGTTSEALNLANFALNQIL

Target: native MUC16 partially purified from OVCAR-3 cell culture media (human (endogenous in OVCAR-3)) (UniProt Q8WXI7)
Experiment: far-Western, overlay or dot blot; MUC16 (200 U of CA125/blot) on PVDF, blocked with BSA, incubated with biotinylated lectins (10 ug/ml) for 2 h at 25°C, then probed with recombinant bacterial mesothelin; detected with MN antibody; both purified

Substance: erythroagglutinating phytohemagglutinin (from UniProt P05088 22-275)
- binding: binds
